Measurements from article PMC9667317.
No constants are given. Whether binding was seen depends on the method and setting.

Protein sequences, listed by entry. Tags and fused reporters are not part of them.
UniProt P00441: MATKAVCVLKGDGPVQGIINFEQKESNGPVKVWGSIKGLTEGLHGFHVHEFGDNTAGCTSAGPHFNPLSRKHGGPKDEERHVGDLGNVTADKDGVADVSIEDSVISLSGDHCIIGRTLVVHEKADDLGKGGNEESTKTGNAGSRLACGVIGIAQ
UniProt P00442: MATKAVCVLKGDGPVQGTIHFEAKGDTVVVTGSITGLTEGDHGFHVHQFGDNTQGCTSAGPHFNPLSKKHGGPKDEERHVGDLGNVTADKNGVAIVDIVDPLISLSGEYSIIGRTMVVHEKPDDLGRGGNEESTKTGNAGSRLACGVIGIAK

Target: human WT 2Cu, 2Zn-SOD1 isolated from human erythrocytes (human) (UniProt P00441)
Assay: capillary electrophoresis; holo bovine SOD1 mixed with holo human SOD1 (both 2Cu, 2Zn, from erythrocytes), 15 μM dimer each ([SOD1]total = 30 μM), followed for 14 days; CE at 22 °C, storage at 15 °C, pH 7.4; both purified

## bovine 2Cu, 2Zn-SOD1 isolated from cow erythrocytes (from UniProt P00442 1-152) (enzyme)
  binding: no binding (tested: 15 μM dimer each, after 14 days)
